# Measured values from PubChem BioAssay AID493014 (National Center for Advancing Translational Sciences (NCATS), 2011).
# The other results are listed elsewhere or left out. Shown are side measurements of this screen, not its main read-out; they come without a call. Most of these compounds were active or inconclusive in the main read-out, so they are no random draw. Potencies come from curve fits of mixed quality, noted in brackets.
# Test: qHTS Assay to Find Inhibitors of Chronic Active B-Cell Receptor Signaling
# Settings: ABC-DLBCL IkBa-CBG/CBR reporter, luminescence ratio (green luciferase fused to IkBa over red control in TMD8 lymphoma cells), 4 h
# Method in brief: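 Doxycycline induced both beetle luciferases in TMD8 lymphoma cells; IKK-driven degradation limits the IkappaBalpha-fused green signal, while red luminescence normalises for cell number and nonspecific effects. Compounds tested up to 46 uM, 4 hrs.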
# [1] = measured here: CBR red luminescence, cell number
# [2] = measured here: IkBa-CBG green luminescence
SMILES,AC50 [1],AC50 [2]
O=c1c2ccccc2[nH]c(=S)n1CCCN1CCN(C2CCCCC2)CC1,"29.1 µM [rising, single point]",–
CCOC(=O)N1CCC(n2c(SCC(=O)NCCc3ccc(S(N)(=O)=O)cc3)nc3ccccc3c2=O)CC1,"25.1 µM [falling, single point]",–
Cc1ccc(C(=S)NCS(=O)(=O)c2ccc(C)cc2)cc1,–,"15.8 µM [falling, single point]"
CCCC(=O)C1=C(c2ccc(C)cc2)N(C(=O)CCC)n2cnnc2S1,–,"25.1 µM [falling, single point]"
Cc1ccc(S(=O)(=O)N2CCCC2C(=O)n2nc(C)cc2C)cc1 (configuration not stated),"0.731 µM [rising, full curve, poor fit]",–
Cc1ccnc(NS(=O)(=O)c2ccc(NC(=O)CSc3nc(-c4ccccc4)cc(=O)[nH]3)cc2)n1,"3.55 µM [falling, full curve]",–
C/C(=C\c1ccc(C(=O)O)cc1)c1ccc2c(c1)C(C)(C)CCC2(C)C,"20.6 µM [falling, single point]",–
O=C(NN=C1CCCC1)c1cc(Br)ccc1O,"1.26 µM [falling, full curve]",–
C/C(=N\NS(=O)(=O)c1ccc(Br)cc1)c1ccncc1,"14.1 µM [falling, single point]",–
CCCCNc1nc2sc3c(c2c(=O)n1-c1cccc(Cl)c1)CCN(C)C3,"3.55 µM [rising, single point]",–
CC1CCCN(c2ccc(C(=O)NCc3cccs3)cn2)C1 (configuration not stated),"20.6 µM [falling, single point]",–
OCCNCCNCc1ccccc1OCc1ccccc1,"12.6 µM [falling, single point]",–
CCOc1nc(C)nc(NC(=O)NS(=O)(=O)c2ccccc2Cl)n1,"0.82 µM [rising, full curve]",–
COc1ccc(CCNC(=S)NCCc2c[nH]c3ccccc23)cc1,"11.2 µM [falling, single point]",–
Cc1cc(C)nc(NC(=NCCc2c[nH]c3ccccc23)NC(=O)Nc2cccc([N+](=O)[O-])c2)n1,"6.51 µM [rising, single point]",–
O=S(=O)(NCc1ccc(Cl)cc1Cl)c1cccs1,"17.8 µM [rising, single point]",–
N/C(=N\N=C\c1ccc([N+](=O)[O-])cc1)c1nonc1N,"0.112 µM [rising, full curve, poor fit]",–
CCSC1=NSC2=NC(=O)/C(=C\c3coc4ccccc4c3=O)C(=N)N12,"2.91 µM [rising, partial curve]",–
COc1cccc(C(=O)Oc2ccccc2/C=C\C(=O)c2cc3ccccc3o2)c1,"0.164 µM [falling, full curve, poor fit]",–
Cc1cc(NC(=O)COc2ccccc2)ccc1Cl,"1.26 µM [rising, partial curve]",–
CC(C)(C)C1=CC(O)(c2ccccc2)C=C(C(C)(C)C)C1=O,"2.82 µM [rising, partial curve, poor fit]",–

# Some values from above:
# Value of CC(C)(C)C1=CC(O)(c2ccccc2)C=C(C(C)(C)C)C1=O under AC50 [1]: 2.82 µM [rising, partial curve, poor fit]
# Value of OCCNCCNCc1ccccc1OCc1ccccc1 under AC50 [1]: 12.6 µM [falling, single point]
# Value of N/C(=N\N=C\c1ccc([N+](=O)[O-])cc1)c1nonc1N under AC50 [1]: 0.112 µM [rising, full curve, poor fit]

# (more compounds)

SMILES,AC50 [1],AC50 [2]
OC[C@H]1O[C@@H](n2cnc3c(Nc4ccccc4)ncnc32)[C@H](O)[C@@H]1O,–,"3.98 µM [falling, partial curve]"
C=CCn1c(CNC(=O)c2ccco2)nnc1SCC(=O)Nc1cccc(Br)c1,"29.1 µM [falling, single point]",–
CCN(CC(=O)Nc1c(F)cccc1F)C(=O)CCC(=O)c1ccc(C)cc1,"32.6 µM [rising, partial curve, poor fit]",–
C=C(C)C(=O)Nc1cccc(C2=NOC3(C2)C[C@H](C(N)=O)N(C(=O)CC)C3)c1 (some centres not stated),"35.5 µM [rising, single point]",–
Cc1ccc(-n2nc3c(c2NC(=O)c2c(-c4ccccc4Cl)noc2C)CSC3)cc1,"2.24 µM [rising, partial curve, poor fit]",–
Nc1nonc1C(=O)NCCNCc1ccccc1OCc1ccccc1F,"11.2 µM [falling, partial curve, poor fit]",–
Clc1ccccc1OCCCOc1cccc2cccnc12,"3.16 µM [rising, single point]",–
COC(=O)CSc1nc2c(c(C3CC=CCC3)c1C#N)CCC2 (configuration not stated),"16.4 µM [rising, single point]",–
COc1ccc(-c2nc(CN(C)C(C)c3ccon3)c(C)o2)c(C)c1C (configuration not stated),"2 µM [rising, partial curve]",–
COc1ccc(C(=O)N/C(=C\c2ccc3c(c2)OCO3)C(=O)NCCc2nc3ccccc3[nH]2)cc1,"29.1 µM [falling, single point]",–
COC(=O)c1ccccc1NC(=S)NC(NC(=O)COc1ccccc1)C(Cl)(Cl)Cl (configuration not stated),"35.5 µM [falling, single point]",–
CN(C)CCCNC(CC(=O)Nc1cccc([N+](=O)[O-])c1)C(=O)O (configuration not stated),"0.58 µM [falling, full curve]",–
CC(OC(=O)/C=C/c1ccccc1)C(=O)Nc1cccc(C#N)c1 (configuration not stated),–,"29.1 µM [falling, single point]"
Cc1[nH]c2ccc(-c3nnc(SCC(=O)c4ccc(F)cc4)o3)cc2c1C,"22.4 µM [rising, single point]",–
CCCc1c(C(=O)Nc2ccc(F)cc2F)cnn1-c1ccccc1,"8.91 µM [falling, partial curve]",–
Cc1ccc(Sc2nc3ccc(C)cn3c(=O)c2/C=N/O)cc1,"8.91 µM [falling, partial curve]",–
Cc1ccc(C)c(OCCC(=O)OCC(=O)N2CCN(S(=O)(=O)c3ccc(Cl)cc3)CC2)c1,"18.4 µM [falling, single point]","13 µM [rising, partial curve, poor fit]"
CCCOc1cccc(C(=O)Nc2ccc(CN3CCOCC3)cc2)c1,"12.6 µM [falling, single point]",–
CC(C)(C)c1ccc(C(=O)Cn2cnnc2C#N)cc1,"3.16 µM [falling, full curve]",–
O=C1c2cccnc2C(Nc2ccc(Cl)cc2)N1Cc1cccs1 (configuration not stated),"10 µM [falling, partial curve, poor fit]",–
